These results are taken from doi:10.1101/428854.

Chains of the proteins cited; added tags and fusions are not shown. Lines headed by an entry give the natural chain unless they say otherwise; changes in a name come on top. Residues count along the entry.
UniProt Q9FN92: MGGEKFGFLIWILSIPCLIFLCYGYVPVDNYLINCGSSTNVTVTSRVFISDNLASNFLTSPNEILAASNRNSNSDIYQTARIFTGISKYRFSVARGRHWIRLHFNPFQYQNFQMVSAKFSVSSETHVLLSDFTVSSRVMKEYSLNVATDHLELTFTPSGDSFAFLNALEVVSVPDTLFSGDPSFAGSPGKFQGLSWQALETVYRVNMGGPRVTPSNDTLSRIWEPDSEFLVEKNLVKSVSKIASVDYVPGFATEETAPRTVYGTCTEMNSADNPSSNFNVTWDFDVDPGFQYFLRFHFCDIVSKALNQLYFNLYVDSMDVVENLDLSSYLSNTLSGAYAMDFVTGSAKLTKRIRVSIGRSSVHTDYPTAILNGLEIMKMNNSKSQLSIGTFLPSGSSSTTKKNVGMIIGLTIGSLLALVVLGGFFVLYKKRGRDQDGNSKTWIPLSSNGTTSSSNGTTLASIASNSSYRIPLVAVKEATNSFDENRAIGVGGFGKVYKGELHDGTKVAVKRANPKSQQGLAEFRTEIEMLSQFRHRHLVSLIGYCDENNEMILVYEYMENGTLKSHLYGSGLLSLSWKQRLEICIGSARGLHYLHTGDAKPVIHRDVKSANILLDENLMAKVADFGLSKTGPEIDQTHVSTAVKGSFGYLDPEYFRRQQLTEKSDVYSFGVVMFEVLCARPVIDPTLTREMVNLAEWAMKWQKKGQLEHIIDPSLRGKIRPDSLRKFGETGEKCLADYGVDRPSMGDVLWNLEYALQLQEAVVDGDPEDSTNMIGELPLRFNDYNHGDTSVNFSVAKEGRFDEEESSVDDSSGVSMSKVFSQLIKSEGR
extracellular domain of HERK1 (HERK1-ECD) (Q9LX66, residues 24-405): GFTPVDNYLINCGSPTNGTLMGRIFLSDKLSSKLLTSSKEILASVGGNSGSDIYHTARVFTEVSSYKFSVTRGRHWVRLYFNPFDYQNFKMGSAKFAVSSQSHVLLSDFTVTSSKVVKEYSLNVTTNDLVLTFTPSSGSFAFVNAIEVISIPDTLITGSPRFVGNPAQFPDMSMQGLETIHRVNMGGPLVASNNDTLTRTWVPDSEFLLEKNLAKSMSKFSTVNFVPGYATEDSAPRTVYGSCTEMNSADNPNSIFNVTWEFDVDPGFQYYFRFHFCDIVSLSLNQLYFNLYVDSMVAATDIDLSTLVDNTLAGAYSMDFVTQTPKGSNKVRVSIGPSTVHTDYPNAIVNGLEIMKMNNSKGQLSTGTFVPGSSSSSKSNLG
cytosolic kinase domain of HERK1 (HERK1-KIN) (Q9LX66, residues 429-830): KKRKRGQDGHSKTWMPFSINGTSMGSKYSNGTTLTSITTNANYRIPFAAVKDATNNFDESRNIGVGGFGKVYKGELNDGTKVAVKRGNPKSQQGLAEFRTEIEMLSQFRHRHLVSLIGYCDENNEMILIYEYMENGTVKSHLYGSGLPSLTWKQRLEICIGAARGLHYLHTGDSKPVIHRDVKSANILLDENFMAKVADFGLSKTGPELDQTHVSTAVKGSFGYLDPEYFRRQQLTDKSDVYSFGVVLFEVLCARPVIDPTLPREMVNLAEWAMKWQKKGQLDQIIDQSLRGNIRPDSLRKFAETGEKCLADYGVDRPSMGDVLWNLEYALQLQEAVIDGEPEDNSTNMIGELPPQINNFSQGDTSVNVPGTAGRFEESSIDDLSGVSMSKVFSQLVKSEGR

Assay [1] has as its target cytosolic kinase domain of FERONIA (FER-KIN) (Arabidopsis thaliana) (UniProt Q9SCZ4). The experiment in a line: two-hybrid.
Assay [2] deals with cytosolic kinase domain of ANJEA (ANJ-KIN) (Arabidopsis thaliana) (UniProt Q9FN92). In words: two-hybrid.
For assay [3], the target named is T1, extracellular domain of FERONIA (FER-ECD) (Arabidopsis thaliana) (UniProt Q9SCZ4).
T1 sequence: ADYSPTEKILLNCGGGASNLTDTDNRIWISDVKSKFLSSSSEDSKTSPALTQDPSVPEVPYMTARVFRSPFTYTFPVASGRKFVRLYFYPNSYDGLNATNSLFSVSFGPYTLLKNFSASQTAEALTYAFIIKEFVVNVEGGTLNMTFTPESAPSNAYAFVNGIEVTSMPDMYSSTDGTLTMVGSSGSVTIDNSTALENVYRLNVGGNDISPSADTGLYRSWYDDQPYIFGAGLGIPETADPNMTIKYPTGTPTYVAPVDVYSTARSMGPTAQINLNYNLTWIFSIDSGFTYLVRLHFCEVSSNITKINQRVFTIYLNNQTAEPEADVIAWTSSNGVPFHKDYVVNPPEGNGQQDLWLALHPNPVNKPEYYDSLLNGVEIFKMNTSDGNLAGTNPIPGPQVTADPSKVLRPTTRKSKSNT
In words: two-hybrid.

Assay [4] deals with extracellular domain of HERK1 (HERK1-ECD) (Arabidopsis thaliana) (UniProt Q9LX66). In words: two-hybrid.
Assay [5] has as its target extracellular domain of ANJEA (ANJ-ECD) (Arabidopsis thaliana) (UniProt Q9FN92). In words: two-hybrid.
Assay [6] deals with T2, LORELEI (LRE) residues 23-138 (Arabidopsis thaliana) (UniProt B3GS44).
T2 sequence: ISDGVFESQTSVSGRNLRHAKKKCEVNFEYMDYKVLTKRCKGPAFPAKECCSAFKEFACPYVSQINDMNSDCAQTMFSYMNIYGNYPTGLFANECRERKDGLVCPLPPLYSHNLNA
The experiment in a line: two-hybrid.

In assay [7] the target is ANJ-GFP (pFER::ANJ-GFP) transiently expressed in N. benthamiana (Arabidopsis thaliana) (UniProt Q9FN92). In words: co-IP.

No constants are given. Whether binding was seen depends on the method and setting. Binding can be weak; no strength is given. For part of these data: Binding seen in cells or lysates may run through a third protein. For part of these data: Where a sequence is shown, tags or fusion partners need not be part of it.

On to “cytosolic kinase domain of ANJEA (ANJ-KIN) (from UniProt Q9FN92) (domain or fragment)”, for which the binding result in assay [1] is on record as “binds weakly”.

“cytosolic kinase domain of HERK1 (HERK1-KIN) (from UniProt Q9LX66 429-830) (domain or fragment)”: the binding result in assay [2] was “binds weakly”.

Turning to “extracellular domain of ANJEA (ANJ-ECD) (from UniProt Q9FN92) (domain or fragment)”, the binding entry in assay [3] and in assay [4] was “binds” each time.

Turning to “extracellular domain of HERK1 (HERK1-ECD) (from UniProt Q9LX66 24-405) (domain or fragment)”, the binding entry in assay [5] is “binds”.

“extracellular juxtamembrane domain of ANJEA (ANJexJM) (from UniProt Q9FN92) (domain or fragment)”: the binding result in assay [6] is listed as “binds”.

In the case of “extracellular juxtamembrane domain of HERCULES RECEPTOR KINASE 1 (HERK1exJM) (from UniProt Q9LX66) (domain or fragment)”, the binding entry in assay [6] is “binds”.

B1: HA-LRE (p35S::HA-LRE) transiently expressed in N. benthamiana (protein, UniProt B3GS44 21-139)
chain: SSISDGVFESQTSVSGRNLRHAKKKCEVNFEYMDYKVLTKRCKGPAFPAKECCSAFKEFACPYVSQINDMNSDCAQTMFSYMNIYGNYPTGLFANECRERKDGLVCPLPPLYSHNLNAS
As for B1, in assay [7], the binding result was “binds”.

B2: extracellular domain of FERONIA (FER-ECD) (domain or fragment, UniProt Q9SCZ4 28-446)
chain: ADYSPTEKILLNCGGGASNLTDTDNRIWISDVKSKFLSSSSEDSKTSPALTQDPSVPEVPYMTARVFRSPFTYTFPVASGRKFVRLYFYPNSYDGLNATNSLFSVSFGPYTLLKNFSASQTAEALTYAFIIKEFVVNVEGGTLNMTFTPESAPSNAYAFVNGIEVTSMPDMYSSTDGTLTMVGSSGSVTIDNSTALENVYRLNVGGNDISPSADTGLYRSWYDDQPYIFGAGLGIPETADPNMTIKYPTGTPTYVAPVDVYSTARSMGPTAQINLNYNLTWIFSIDSGFTYLVRLHFCEVSSNITKINQRVFTIYLNNQTAEPEADVIAWTSSNGVPFHKDYVVNPPEGNGQQDLWLALHPNPVNKPEYYDSLLNGVEIFKMNTSDGNLAGTNPIPGPQVTADPSKVLRPTTRKSKSNT
On to B2, for which the binding result in assay [5] is “binds”.
